Source: US20080221097A1, “Imidazopyridine Derivatives as Cannabinoid Receptor Ligands” (priority 2005, published 2008)
Structures can show the parent of a compound that is named as a salt. Where two headings read alike, the source gives them in different places. Some of these results come from one statement about several compounds together.

The chains behind the UniProt entries cited, without tags or fusion partners.
UniProt P21554, whole entry: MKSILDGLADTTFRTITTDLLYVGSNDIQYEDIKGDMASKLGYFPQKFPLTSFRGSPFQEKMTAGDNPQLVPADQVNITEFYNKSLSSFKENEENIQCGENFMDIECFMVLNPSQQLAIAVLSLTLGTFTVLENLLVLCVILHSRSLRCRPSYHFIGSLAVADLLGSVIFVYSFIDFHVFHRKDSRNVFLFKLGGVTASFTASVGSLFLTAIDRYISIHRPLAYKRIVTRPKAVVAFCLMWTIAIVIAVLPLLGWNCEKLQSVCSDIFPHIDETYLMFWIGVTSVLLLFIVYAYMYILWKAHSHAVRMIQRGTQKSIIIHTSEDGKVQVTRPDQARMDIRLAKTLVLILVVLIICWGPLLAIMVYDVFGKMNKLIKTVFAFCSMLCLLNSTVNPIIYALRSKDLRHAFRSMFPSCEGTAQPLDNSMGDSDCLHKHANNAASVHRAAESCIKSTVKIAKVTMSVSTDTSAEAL
UniProt P34972, whole entry: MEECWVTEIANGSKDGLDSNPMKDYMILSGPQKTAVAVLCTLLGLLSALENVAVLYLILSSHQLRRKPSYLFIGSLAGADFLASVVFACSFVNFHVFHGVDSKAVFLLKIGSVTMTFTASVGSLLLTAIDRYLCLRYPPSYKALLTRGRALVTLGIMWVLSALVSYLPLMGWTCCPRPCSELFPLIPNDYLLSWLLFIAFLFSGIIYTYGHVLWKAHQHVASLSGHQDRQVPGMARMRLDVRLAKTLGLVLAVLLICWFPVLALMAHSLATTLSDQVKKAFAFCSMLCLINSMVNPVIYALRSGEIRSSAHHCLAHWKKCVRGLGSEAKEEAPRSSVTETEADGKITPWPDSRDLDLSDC

Columns and labels:
[1] = target: T1, human cannabinoid CB1 receptor (Homo sapiens, UniProt P21554); assay: Cannabinoid CB1 receptor agonist activity, yeast assay; format: cell-based; settings: EC50[compound]/EC50[HU210]
T1 construct: expressed in transfected cells; host or cells: Saccharomyces cerevisiae strain MMY23 (cassette integrated at the ura3 locus, GPD promoter)

[2] = target: T2, human cannabinoid CB2 receptor (Homo sapiens, UniProt P34972); assay: Cannabinoid CB2 receptor agonist activity, yeast assay; format: cell-based
T2 construct: expressed in transfected cells; host or cells: Saccharomyces cerevisiae strain MMY23 (cassette integrated at the ura3 locus, GPD promoter)
Experimental: The cannabinoid CB2 receptor agonist activity of compounds of formula (I) was determined in accordance with the following experimental method.
Yeast (Saccharomyces cerevisiae) cells expressing the human cannabinoid CB2 receptor were generated by integration of an expression cassette into the ura3 chromosomal locus of yeast strain MMY23. This cassette consisted of DNA sequence encoding the human CB2 receptor flanked by the yeast GPD promoter to the 5′ end of CB2 and a yeast transcriptional terminator sequence to the 3′ end of CB2. MMY23 expresses a yeast/mammalian chimeric G-protein alpha subunit in which the C-terminal 5 amino acids of Gpa1 are replaced with the C-terminal 5 amino acids of human Gαi½ (as described in Brown et al. (2000), Yeast 16:11-22). Cells were grown at 30° C. in liquid Synthetic Complete (SC) yeast media (Guthrie and Fink (1991), Methods in Enzymology, Vol. 194) lacking uracil, tryptophan, adenine and leucine to late logarithmic phase (approximately 6 OD600/ml).
Agonists were prepared as […] solutions in DMSO. EC50 values (the concentration required to produce 50% maximal response) were estimated using 4 fold dilutions (BiomekFX, Beckman) into DMSO. Agonist solutions in DMSO (1% final assay volume) were transferred into black microtitre plates from Greiner (384-well). Cells were suspended at a density of 0.2 OD600/ml in SC media lacking histidine, uracil, tryptophan, adenine and leucine and supplemented with 10 mM 3-aminotriazole, 0.1M sodium phosphate pH 7.0, and 10 μM fluorescein di-β-D-glucopyranoside (FDGlu). This mixture (50 μl per well) was added to agonist in the assay plates (Multidrop 384, Labsystems). After incubation at 30° C. for 24 hours, fluorescence resulting from degradation of FDGlu to fluorescein due to exoglucanase, an endogenous yeast enzyme produced during agonist-stimulated cell growth, was determined using a fluorescence microtitre plate reader (Tecan Spectrofluor or LJL Analyst excitation wavelength: 485 nm; emission wavelength: 535 nm). Fluorescence was plotted against compound concentration and iteratively curve fitted using a four parameter fit to generate a concentration effect value. Efficacy (Emax) was calculated from the equation
Emax=Max[compound X]−Min[compound X]/Max[HU210]−Min[HU210]×100%
where Max[compound X] and Min[compound X] are the fitted maximum and minimum respectively from the concentration effect curve for compound X, and Max[HU210] and Min[HU210] are the fitted maximum and minimum respectively from the concentration effect curve for (6aR,10aR)-3-(1,1′-Dimethylheptyl)-6a,7,10,10a-tetrahydro-1-hydroxy-6,6-dimethyl-6H-dibenzo [b,d]pyran-9-methanol (HU210; available from Tocris). Equieffective molar ratio (EMR) values were calculated from the equation
Where EC50[compound X] is the EC50 of compound X and EC50[HU210] is the EC50of HU210.

[3] = read-out: EC50 at the cloned human cannabinoid CB2 receptor; yeast cells expressing human CB2; averages of a number of experiments
[4] = yeast assays, EMR CB1 versus EMR CB2

Compound: Cl.Cn1cnc2c(Nc3cccc(Br)c3)ncc(C(=O)N3CCOCC3)c21 [Example 2, N-(3-Bromophenyl)-1-methyl-7-(4-morpholinylcarbonyl)-1H-imidazo[4,5-c]pyridin-4-amine hydrochloride salt]
- EMR (equieffective molar ratio) in the CB1 yeast receptor assay [1]: greater than 100
- EMR (equieffective molar ratio) in the CB2 yeast receptor assay ([2]; EC50[compound]/EC50[HU210]): less than 100
- EC50 [2, 3]: < 0.3 µM
- lower EMR for CB2 over CB1 (selectivity) [2, 4]: tenfold

Compound: Cl.Cn1cnc2c(Nc3ccc(Cl)cc3Cl)ncc(C(=O)N3CCCCC3)c21 [Example 6, N-(2,4-Dichlorophenyl)-1-methyl-7-(1-piperidinylcarbonyl)-1H-imidazo[4,5-c]pyridin-4-amine hydrochloride salt]
- EMR (equieffective molar ratio) in the CB1 yeast receptor assay [1]: greater than 100
- EMR (equieffective molar ratio) in the CB2 yeast receptor assay ([2]; EC50[compound]/EC50[HU210]): less than 100

Compound: CC(C)CNC(=O)c1cnc(Nc2ccc(Cl)cc2Cl)c2ncn(C)c12.Cl [Example 8, 4-1(2,4-Dichlorophenyl)amino]-1-methyl-N-(2-methylpropyl)-1H-imidazo[4,5-c]pyridine-7-carboxamide hydrochloride salt]
- EC50 [2, 3]: < 0.3 µM

Compound: CC(C)CNC(=O)c1cnc(Nc2ccc(Cl)cc2Cl)c2ncn(C)c12.Cl [Example 8]
- EMR (equieffective molar ratio) in the CB1 yeast receptor assay [1]: greater than 100
- EMR (equieffective molar ratio) in the CB2 yeast receptor assay ([2]; EC50[compound]/EC50[HU210]): less than 100
- lower EMR for CB2 over CB1 (selectivity) [2, 4]: tenfold

Compound: Cl.Cn1cnc2c(Nc3cccc(Cl)c3)ncc(C(=O)N3CCCC3)c21 [Example 11, N-(3-Chlorophenyl)-1-methyl-7-(1-pyrrolidinylcarbonyl)-1H-imidazo[4,5-c]pyridin-4-amine hydrochloride salt]
- EMR (equieffective molar ratio) in the CB1 yeast receptor assay [1]: greater than 100
- EMR (equieffective molar ratio) in the CB2 yeast receptor assay ([2]; EC50[compound]/EC50[HU210]): less than 100
- EC50 [2, 3]: < 0.3 µM
- lower EMR for CB2 over CB1 (selectivity) [2, 4]: tenfold

Compound: Cn1cnc2c(Oc3cccc(Cl)c3)ncc(C(=O)N3CCCC3)c21 [Example 15, 4-1(3-Chlorophenyl)oxy]-1-methyl-7-(1-pyrrolidinylcarbonyl)-1H-imidazo[4,5-c]pyridine hydrochloride salt]
- EMR (equieffective molar ratio) in the CB1 yeast receptor assay [1]: greater than 100
- EMR (equieffective molar ratio) in the CB2 yeast receptor assay ([2]; EC50[compound]/EC50[HU210]): less than 100
- lower EMR for CB2 over CB1 (selectivity) [2, 4]: tenfold
- EC50 ([2]; yeast cells expressing human CB2; averages of a number of experiments; read-out: EC50 at the cloned human cannabinoid CB2 receptor): < 0.3 µM

Compound: CC(C)CNC(=O)c1cnc(Oc2cccc(Cl)c2)c2ncn(C)c12.Cl [Example 16]
- EMR (equieffective molar ratio) in the CB1 yeast receptor assay [1]: greater than 100
- EMR (equieffective molar ratio) in the CB2 yeast receptor assay ([2]; EC50[compound]/EC50[HU210]): less than 100
- lower EMR for CB2 over CB1 (selectivity) [2, 4]: tenfold

Compound: Cl.Cn1cnc2c(Nc3ccc(F)c(F)c3)ncc(C(=O)N3CCOCC3)c21 [Example 19, N-(3,4-Difluorophenyl)-1-methyl-7-(4-morpholinylcarbonyl)-1H-imidazo[4,5-c]pyridin-4-amine hydrochloride salt]
- EMR (equieffective molar ratio) in the CB1 yeast receptor assay [1]: greater than 100
- EMR (equieffective molar ratio) in the CB2 yeast receptor assay ([2]; EC50[compound]/EC50[HU210]): less than 100
- lower EMR for CB2 over CB1 (selectivity) [2, 4]: tenfold
